Data from patent US20060235215A1.
These are yes or no findings as the source states them, for the method shown. Some entries that bind do so weakly or less than the wild type.

Amino acid sequences for entries named in this document (tags omitted). A change or cut given only in a name is not applied to a line headed by its entry.
UniProt Q0JL44: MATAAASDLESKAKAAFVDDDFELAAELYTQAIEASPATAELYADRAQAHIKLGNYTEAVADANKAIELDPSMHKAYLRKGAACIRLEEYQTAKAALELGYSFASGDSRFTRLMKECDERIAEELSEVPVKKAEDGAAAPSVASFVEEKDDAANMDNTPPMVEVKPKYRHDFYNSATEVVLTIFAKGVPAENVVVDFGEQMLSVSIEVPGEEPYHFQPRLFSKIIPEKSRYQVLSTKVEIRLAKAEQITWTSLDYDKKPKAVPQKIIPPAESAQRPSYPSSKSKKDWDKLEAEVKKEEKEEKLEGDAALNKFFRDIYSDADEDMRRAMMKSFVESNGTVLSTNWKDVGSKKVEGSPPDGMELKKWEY

T1: Hypothetical Protein 006819-2510, Similar to Hemerocallis Senescence-Related Protein 5, bait fragment aa 1-273 (Oryza sativa)
T1 sequence: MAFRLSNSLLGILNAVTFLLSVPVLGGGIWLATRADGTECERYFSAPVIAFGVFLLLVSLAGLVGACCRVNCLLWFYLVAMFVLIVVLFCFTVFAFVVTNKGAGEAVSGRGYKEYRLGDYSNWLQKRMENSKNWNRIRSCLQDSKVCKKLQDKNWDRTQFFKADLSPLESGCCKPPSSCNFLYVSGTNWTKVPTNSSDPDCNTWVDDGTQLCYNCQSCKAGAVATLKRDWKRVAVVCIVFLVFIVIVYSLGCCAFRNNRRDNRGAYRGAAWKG

T2: Hypothetical Protein 006819-2510, Similar to Hemerocallis Senescence-Related Protein 5, bait fragment aa 1-150 (Oryza sativa)
T2 sequence: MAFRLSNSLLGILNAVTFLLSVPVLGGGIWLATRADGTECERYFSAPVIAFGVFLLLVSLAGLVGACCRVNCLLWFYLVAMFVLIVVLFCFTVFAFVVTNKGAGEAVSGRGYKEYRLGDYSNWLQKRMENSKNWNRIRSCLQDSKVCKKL


Experiments:
Experiment in all cases: yeast two-hybrid
[1] = target: T1, Hypothetical Protein 006819-2510, Similar to Hemerocallis Senescence-Related Protein 5, bait fragment aa 1-273 (Oryza sativa)
[2] = target: T2, Hypothetical Protein 006819-2510, Similar to Hemerocallis Senescence-Related Protein 5, bait fragment aa 1-150 (Oryza sativa)
[3] = target: OsSGT1, bait fragment aa 200-368 (Oryza sativa) (UniProt Q0JL44)

binding [1] | Binder | further results
binds | GEKKGFMDKIKEKLPGQH [O. sativa DEHYDRIN RAB 16B, prey clone aa 147-164] | –
– | GEHHKKDGEHKEGVVEKIKDKITGDHGDGGEH [Oryza sativa Low Temperature-Induced Protein 5, prey clone aa 29-60] | binding [2]: binds
binds | KGPWKQKKIKNPNYQGKWK [O. sativa Calreticulin Precursor, prey clone aa 283-301] | –
– | RNA binding domain protein PN23914, prey clone aa 1-263 (protein) MEGGGEVGWYVLGPNQEHVGPYALSELREHFANGYISESSMLWAEGRSEWMPLSSIPDLLAVVTKKDQPDEGIEDDFDKFQKEVIEAEAEVEASTDKAADNDINQEHGADDPDDRPATPPDGEDEFTDDDGTVYKWDRVLRAWVPQDDLEGKNDNYEVEDMTFAHEEEVFQAPDIAGSTTLEENNVSAEIEIKEPPKVEKRAHKKRKSSEKPADKKEAYKPPDSWVDLKVNTHVYVTGLPDDVTAEEIVEVFSKCGIIKEDPE | binding [3]: binds
